Results reported in paper PMC9277853.
These are yes or no findings as the source states them, for the method shown. In cells and extracts the contact can be indirect. Some entries that bind do so weakly or less than the wild type. For part of these data: Where a sequence is shown, tags or fusion partners need not be part of it. One block for each molecule: values may come before it.

The chains behind the UniProt entries cited, without tags or fusion partners.
UniProt P67809: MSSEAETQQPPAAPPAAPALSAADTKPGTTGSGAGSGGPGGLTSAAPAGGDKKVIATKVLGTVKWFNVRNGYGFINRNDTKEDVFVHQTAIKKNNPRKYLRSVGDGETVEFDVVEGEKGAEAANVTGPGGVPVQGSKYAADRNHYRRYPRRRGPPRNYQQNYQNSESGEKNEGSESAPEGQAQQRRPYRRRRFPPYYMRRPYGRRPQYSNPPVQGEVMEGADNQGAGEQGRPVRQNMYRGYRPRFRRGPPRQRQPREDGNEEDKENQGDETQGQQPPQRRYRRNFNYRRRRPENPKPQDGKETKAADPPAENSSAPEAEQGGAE

Legend:
[1] = target: T1, RNF8 (endogenous) (human (endogenous in MDA-MB-231)) (UniProt O76064); assay: co-IP; endogenous; MDA-MB-231 lysate (methods: MCF7) with anti-RNF8 antibody or normal mouse IgG (control); blots with anti-RNF8 and anti-YBX1
T1 sequence: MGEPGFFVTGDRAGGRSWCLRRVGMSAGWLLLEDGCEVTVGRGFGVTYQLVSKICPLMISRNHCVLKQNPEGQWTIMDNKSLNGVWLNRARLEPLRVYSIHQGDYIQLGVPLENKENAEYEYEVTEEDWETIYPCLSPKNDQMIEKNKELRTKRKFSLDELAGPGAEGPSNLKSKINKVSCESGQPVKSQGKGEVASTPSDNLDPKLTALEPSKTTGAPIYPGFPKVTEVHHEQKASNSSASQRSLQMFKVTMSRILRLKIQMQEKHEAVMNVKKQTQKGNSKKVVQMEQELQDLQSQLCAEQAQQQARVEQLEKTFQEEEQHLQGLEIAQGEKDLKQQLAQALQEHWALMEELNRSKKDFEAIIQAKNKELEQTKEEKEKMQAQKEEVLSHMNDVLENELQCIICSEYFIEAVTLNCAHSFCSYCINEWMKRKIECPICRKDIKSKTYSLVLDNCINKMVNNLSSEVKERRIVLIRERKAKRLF

Flag-HA-RNF8 = target: T2, Flag-HA-RNF8 (UniProt O76064); assay: co-IP; HEK-293T transfected with pcDNA3.1 (control) or pcDNA3.1-FH-RNF8, 48 h; lysate on HA-Sepharose beads; blots with anti-RNF8, anti-HA, anti-YBX1
T2 sequence: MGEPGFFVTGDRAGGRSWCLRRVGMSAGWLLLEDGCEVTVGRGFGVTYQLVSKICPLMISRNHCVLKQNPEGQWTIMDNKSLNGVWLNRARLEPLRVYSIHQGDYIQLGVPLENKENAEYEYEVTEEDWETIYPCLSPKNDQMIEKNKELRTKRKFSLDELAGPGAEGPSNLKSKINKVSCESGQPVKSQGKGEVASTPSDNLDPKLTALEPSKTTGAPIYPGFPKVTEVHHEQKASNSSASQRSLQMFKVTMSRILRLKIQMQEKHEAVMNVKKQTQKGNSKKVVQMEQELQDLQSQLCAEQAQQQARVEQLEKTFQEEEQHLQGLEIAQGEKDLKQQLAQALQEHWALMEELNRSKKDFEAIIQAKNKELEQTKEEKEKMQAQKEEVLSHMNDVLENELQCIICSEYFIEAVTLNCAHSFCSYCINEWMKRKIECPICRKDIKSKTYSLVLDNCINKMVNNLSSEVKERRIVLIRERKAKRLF

FH-YBX1 = FH-YBX1 (UniProt P67809); assay: co-IP; HEK-293T transfected with TG006 or TG006-RNF8 together with pcDNA3.1-FH-YBX1, 48 h; anti-Flag-M2 agarose beads; blots with anti-YBX1 and anti-RNF8

binding [1]: binds
Molecule: YBX1 (endogenous, MDA-MB-231) (from UniProt P67809 1-324)

binding (Flag-HA-RNF8): binds
Molecule: YBX1 (endogenous) (from UniProt P67809 1-324)

binding (FH-YBX1): binds
B1: RNF8 expressed from TG006-RNF8 (enzyme, UniProt O76064 1-485)
chain: MGEPGFFVTGDRAGGRSWCLRRVGMSAGWLLLEDGCEVTVGRGFGVTYQLVSKICPLMISRNHCVLKQNPEGQWTIMDNKSLNGVWLNRARLEPLRVYSIHQGDYIQLGVPLENKENAEYEYEVTEEDWETIYPCLSPKNDQMIEKNKELRTKRKFSLDELAGPGAEGPSNLKSKINKVSCESGQPVKSQGKGEVASTPSDNLDPKLTALEPSKTTGAPIYPGFPKVTEVHHEQKASNSSASQRSLQMFKVTMSRILRLKIQMQEKHEAVMNVKKQTQKGNSKKVVQMEQELQDLQSQLCAEQAQQQARVEQLEKTFQEEEQHLQGLEIAQGEKDLKQQLAQALQEHWALMEELNRSKKDFEAIIQAKNKELEQTKEEKEKMQAQKEEVLSHMNDVLENELQCIICSEYFIEAVTLNCAHSFCSYCINEWMKRKIECPICRKDIKSKTYSLVLDNCINKMVNNLSSEVKERRIVLIRERKAKRLF
